These are yes or no findings as the source states them, for the method shown. Binding seen in cells or lysates may run through a third protein. Some results given as binding are weak or reduced against the parent protein; the word gives no strength. Where a sequence is shown, tags or fusion partners need not be part of it.

Amino acid sequences for entries named in this document (tags omitted). Residues count along the entry.
UniProt Q4ZJM7, residues 24-482: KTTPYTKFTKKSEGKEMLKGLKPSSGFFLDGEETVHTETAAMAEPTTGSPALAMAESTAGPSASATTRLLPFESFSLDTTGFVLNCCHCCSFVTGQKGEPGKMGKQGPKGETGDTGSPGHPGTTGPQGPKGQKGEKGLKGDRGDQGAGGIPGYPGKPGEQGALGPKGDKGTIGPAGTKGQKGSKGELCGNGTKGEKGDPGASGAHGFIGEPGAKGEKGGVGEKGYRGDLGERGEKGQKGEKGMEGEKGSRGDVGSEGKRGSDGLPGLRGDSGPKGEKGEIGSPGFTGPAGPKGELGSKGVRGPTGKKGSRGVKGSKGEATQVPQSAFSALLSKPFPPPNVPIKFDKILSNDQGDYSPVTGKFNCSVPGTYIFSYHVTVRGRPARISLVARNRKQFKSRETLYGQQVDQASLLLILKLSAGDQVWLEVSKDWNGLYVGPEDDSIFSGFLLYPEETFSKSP

The target of the assay is T1, recombinant histidine tagged mouse Otoconin-90 (mouse) (UniProt Q9Z0L3).
T1 sequence: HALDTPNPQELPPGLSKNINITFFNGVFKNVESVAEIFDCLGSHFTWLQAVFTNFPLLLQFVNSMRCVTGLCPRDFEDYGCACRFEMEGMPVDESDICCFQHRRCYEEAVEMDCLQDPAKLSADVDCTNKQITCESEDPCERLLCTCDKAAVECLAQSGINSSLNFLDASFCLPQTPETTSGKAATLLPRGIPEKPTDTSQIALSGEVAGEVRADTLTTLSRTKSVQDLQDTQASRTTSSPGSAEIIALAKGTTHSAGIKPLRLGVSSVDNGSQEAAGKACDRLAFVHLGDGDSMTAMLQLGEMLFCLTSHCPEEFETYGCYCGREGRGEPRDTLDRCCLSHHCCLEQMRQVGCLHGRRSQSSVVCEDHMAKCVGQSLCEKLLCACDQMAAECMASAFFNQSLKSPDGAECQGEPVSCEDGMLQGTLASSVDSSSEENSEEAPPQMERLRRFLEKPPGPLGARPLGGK
The assay is described as follows: pull-down; His-tag pull down; preliminary, data not shown.

Regarding “recombinant mouse Otolin-1-Flag (from UniProt Q4ZJM7 24-482)”, the binding result was “binds”.

Source of the values: PMC3991680.
